Experiment: HPLC analysis of endogenous retinoids in parts of the adult mouse brain

Q: Which “average level of all-trans-retinoic acid” value (cerebellum, endogenous level, peak 3) does the source give for `CC1=C(/C=C/C(C)=C/C=C/C(C)=C/C(=O)O)C(C)(C)CCC1` [all-trans-retinoic acid] here?
A: 531±194 pg/mg tissue

Q: And the “presence of all-trans-retinoic acid (peak 3)” value (cerebrum, HPLC)?
A: absence

Source: patent US20040110707A1, “Method of treating neurological diseases” (priority 2001, published 2004)
